According to US20110256134A1:
Results are given in words; binding and its absence hold for the method and conditions named. Some binding calls cover weakened binding; strength is not graded here.

The chains behind the UniProt entries cited, without tags or fusion partners. Residues count along the entry.
UniProt P04114, residues 28-4563: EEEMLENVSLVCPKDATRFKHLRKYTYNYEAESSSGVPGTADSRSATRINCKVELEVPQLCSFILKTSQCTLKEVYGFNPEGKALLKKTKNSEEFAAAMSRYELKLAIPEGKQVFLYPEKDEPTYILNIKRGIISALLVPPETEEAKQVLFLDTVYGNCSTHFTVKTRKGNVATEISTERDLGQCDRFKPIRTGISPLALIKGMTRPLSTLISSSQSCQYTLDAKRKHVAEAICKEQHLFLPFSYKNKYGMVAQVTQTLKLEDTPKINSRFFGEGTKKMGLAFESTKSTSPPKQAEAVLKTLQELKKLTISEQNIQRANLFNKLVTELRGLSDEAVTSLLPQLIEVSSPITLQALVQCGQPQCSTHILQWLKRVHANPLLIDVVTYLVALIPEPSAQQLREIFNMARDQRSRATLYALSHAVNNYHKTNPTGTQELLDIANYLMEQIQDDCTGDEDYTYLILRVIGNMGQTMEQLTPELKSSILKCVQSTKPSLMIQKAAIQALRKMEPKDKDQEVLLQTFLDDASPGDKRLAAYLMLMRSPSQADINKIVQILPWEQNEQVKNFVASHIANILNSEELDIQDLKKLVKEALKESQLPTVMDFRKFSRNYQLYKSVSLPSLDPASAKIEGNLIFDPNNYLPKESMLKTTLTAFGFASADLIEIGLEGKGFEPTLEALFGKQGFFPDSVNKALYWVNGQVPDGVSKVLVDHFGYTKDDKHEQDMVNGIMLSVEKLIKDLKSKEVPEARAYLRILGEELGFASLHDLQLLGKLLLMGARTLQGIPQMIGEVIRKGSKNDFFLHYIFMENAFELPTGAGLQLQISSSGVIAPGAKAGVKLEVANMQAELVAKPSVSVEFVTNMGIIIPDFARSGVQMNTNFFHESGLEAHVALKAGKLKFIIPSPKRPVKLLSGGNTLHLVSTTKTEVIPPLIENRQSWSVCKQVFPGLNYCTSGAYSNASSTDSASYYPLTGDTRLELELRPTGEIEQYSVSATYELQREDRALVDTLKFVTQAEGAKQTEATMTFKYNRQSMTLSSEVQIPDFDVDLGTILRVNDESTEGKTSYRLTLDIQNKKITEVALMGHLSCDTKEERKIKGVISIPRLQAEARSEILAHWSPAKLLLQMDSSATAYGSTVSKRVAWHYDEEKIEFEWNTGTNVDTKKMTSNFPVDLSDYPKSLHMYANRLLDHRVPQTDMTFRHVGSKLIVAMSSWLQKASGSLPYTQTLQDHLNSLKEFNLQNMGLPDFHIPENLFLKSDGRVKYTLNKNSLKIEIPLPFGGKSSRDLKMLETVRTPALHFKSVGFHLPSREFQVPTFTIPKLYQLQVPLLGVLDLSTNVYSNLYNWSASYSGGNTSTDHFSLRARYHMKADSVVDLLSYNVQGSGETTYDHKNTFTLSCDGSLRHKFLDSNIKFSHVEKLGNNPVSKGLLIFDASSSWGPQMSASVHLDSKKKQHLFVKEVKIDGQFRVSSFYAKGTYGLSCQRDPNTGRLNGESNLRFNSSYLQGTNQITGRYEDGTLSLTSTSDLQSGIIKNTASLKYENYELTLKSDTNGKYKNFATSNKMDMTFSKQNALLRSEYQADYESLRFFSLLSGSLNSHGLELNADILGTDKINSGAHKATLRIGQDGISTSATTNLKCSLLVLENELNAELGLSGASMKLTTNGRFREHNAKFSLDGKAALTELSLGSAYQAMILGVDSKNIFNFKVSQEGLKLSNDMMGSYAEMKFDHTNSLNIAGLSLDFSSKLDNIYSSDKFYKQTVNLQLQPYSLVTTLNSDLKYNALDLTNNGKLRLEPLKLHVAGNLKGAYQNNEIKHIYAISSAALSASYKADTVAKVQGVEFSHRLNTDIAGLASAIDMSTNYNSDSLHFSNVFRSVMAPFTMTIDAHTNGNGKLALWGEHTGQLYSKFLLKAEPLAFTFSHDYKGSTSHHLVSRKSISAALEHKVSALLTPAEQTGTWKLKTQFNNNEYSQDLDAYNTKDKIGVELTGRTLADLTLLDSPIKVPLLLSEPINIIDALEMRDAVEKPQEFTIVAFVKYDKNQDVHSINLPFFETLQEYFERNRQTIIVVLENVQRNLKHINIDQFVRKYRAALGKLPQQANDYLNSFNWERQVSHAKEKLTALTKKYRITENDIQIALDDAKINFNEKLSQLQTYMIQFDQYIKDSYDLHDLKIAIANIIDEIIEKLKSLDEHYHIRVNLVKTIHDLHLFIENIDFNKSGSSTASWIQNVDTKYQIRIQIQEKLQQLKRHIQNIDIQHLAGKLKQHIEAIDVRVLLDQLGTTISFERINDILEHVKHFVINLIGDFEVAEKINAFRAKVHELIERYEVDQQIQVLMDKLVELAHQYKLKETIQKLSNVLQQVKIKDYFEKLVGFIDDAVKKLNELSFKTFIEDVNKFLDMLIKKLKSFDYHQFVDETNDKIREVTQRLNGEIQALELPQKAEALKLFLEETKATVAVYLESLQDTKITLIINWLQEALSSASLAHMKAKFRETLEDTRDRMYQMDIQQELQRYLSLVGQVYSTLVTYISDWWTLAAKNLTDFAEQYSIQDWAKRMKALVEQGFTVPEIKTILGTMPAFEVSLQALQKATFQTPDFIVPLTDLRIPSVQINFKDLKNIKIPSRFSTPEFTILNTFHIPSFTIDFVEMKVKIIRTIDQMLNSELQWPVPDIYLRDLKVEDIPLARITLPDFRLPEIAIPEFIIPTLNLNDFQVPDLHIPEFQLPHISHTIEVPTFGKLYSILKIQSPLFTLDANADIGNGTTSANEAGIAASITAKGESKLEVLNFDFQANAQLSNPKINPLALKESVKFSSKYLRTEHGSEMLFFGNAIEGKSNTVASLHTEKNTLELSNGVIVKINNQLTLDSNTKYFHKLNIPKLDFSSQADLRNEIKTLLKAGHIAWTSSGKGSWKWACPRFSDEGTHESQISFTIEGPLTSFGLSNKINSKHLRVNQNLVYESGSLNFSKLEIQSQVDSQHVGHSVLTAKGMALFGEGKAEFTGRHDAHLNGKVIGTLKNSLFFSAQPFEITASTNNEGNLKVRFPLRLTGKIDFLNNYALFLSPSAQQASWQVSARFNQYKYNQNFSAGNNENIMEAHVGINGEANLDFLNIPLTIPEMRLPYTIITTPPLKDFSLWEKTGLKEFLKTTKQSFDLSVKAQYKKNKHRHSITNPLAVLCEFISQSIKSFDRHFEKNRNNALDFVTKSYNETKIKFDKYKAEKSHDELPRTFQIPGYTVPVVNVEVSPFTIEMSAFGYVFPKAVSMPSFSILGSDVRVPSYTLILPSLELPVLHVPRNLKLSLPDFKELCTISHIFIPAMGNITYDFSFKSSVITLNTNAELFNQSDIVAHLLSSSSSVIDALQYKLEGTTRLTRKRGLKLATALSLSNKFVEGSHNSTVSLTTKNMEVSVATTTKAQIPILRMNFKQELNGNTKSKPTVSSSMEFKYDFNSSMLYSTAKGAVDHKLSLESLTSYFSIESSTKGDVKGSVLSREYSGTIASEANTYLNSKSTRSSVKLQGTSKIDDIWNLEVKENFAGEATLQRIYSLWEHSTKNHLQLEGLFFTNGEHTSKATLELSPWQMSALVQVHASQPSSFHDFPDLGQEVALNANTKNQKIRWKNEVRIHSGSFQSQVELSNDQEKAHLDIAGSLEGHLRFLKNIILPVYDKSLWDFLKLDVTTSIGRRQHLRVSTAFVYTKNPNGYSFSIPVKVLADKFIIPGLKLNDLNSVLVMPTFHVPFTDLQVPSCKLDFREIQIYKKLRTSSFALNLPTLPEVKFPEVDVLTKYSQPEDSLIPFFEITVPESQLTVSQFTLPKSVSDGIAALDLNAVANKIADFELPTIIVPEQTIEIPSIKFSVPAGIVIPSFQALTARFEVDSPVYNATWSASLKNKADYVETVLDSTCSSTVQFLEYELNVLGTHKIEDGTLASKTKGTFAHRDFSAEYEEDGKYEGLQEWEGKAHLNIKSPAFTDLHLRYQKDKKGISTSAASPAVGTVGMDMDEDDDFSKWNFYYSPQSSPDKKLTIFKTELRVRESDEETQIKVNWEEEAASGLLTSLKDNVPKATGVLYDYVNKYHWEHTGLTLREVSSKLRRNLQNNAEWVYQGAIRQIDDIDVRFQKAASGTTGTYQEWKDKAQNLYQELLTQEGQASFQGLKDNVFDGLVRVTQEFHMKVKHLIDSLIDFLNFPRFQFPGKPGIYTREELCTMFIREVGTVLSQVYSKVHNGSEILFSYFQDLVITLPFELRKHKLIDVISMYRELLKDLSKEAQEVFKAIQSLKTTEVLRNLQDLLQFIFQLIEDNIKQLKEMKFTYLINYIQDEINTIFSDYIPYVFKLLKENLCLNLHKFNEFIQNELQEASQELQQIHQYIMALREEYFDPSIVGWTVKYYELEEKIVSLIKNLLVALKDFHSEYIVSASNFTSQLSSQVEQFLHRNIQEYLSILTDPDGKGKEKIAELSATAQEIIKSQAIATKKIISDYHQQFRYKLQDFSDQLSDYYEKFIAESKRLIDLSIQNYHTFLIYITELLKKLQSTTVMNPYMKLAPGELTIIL

Target: MDA ApoB100 (malondialdehyde oxidized apo B 100 protein portion of LDL) (UniProt P04114)
Experiment: worded statement in the conclusions of Example 1; 2D03 in serum was quantified by an antigen-binding ELISA with MDA ApoB100 as capture reagent

B1: 2D03 (antibody, V domains shown)
VH: EVQLLESGGGLVQPGGSLRLSCAASGFTFSNAWMSWVRQAPGKGLEWVSSISVGGHRTYYADSVKGRSTISRDNSKNTLYLQMNSLRAEDTAVYYCARIRVGPSGGAFDYWGQGTLVTVSS
VL: QSVLTQPPSASGTPGQRVTISCSGSNTNIGKNYVSWYQQLPGTAPKLLIYANSNRPSGVPDRFSGSKSGTSASLAISGLRSEDEADYYCASWDASLNGWVFGGGTKLTVLG
- binding: binds
